This passage reports binding results from paper PMC8256288.

In assay [1] the target is YFP‐tagged B56α. Nature of the assay: co-IP; competition with purified hSgo1 proteins: the endogenous proteins on YFP-B56α (GFP-trap, mitotic HeLa), buffer control against hSgo1.
The target of the next assay is YFP‐B56α R222E. Nature of the assay: co-IP; YFP-B56α variants purified on GFP-trap from nocodazole-arrested (mitotic shake-off) stable HeLa cells; low salt lysis buffer (50 mM Tris-HCl pH 7.5, 50 mM NaCl, 0.1% NP-40); immunoblot. A general note: In western blotting, separated proteins are transferred to a membrane and probed.
Assay [2] deals with YFP‐tagged B56α. Described as above.
Assay [3] concerns the target YFP‐tagged B56α. Nature of the assay: co-IP; peptide competition: the endogenous proteins on YFP-B56α (GFP-trap, mitotic HeLa) with LxxIxE or LxxAxA peptide.
In assay [4] the target is YFP‐tagged B56α. Briefly: co-IP; peptide competition: LxxIxE or LxxAxA peptide incubated with the cell lysate 30 min before GFP-trap of YFP-B56α; immunoblot, LI-COR; only the binder purified.

Results are given in words; binding and its absence hold for the method and conditions named. Binding seen in cells or lysates may run through a third protein. For part of these data: Binding calls can cover weak binding; strength is not graded here.

B1: Kif4A (endogenous) (protein, UniProt O95239 1-1232)
chain: MKEEVKGIPVRVALRCRPLVPKEISEGCQMCLSFVPGEPQVVVGTDKSFTYDFVFDPSTEQEEVFNTAVAPLIKGVFKGYNATVLAYGQTGSGKTYSMGGAYTAEQENEPTVGVIPRVIQLLFKEIDKKSDFEFTLKVSYLEIYNEEILDLLCPSREKAQINIREDPKEGIKIVGLTEKTVLVALDTVSCLEQGNNSRTVASTAMNSQSSRSHAIFTISLEQRKKSDKNSSFRSKLHLVDLAGSERQKKTKAEGDRLKEGININRGLLCLGNVISALGDDKKGGFVPYRDSKLTRLLQDSLGGNSHTLMIACVSPADSNLEETLNTLRYADRARKIKNKPIVNIDPQTAELNHLKQQVQQLQVLLLQAHGGTLPGSITVEPSENLQSLMEKNQSLVEENEKLSRGLSEAAGQTAQMLERIILTEQANEKMNAKLEELRQHAACKLDLQKLVETLEDQELKENVEIICNLQQLITQLSDETVACMAAAIDTAVEQEAQVETSPETSRSSDAFTTQHALRQAQMSKELVELNKALALKEALARKMTQNDSQLQPIQYQYQDNIKELELEVINLQKEKEELVLELQTAKKDANQAKLSERRRKRLQELEGQIADLKKKLNEQSKLLKLKESTERTVSKLNQEIRMMKNQRVQLMRQMKEDAEKFRQWKQKKDKEVIQLKERDRKRQYELLKLERNFQKQSNVLRRKTEEAAAANKRLKDALQKQREVADKRKETQSRGMEGTAARVKNWLGNEIEVMVSTEEAKRHLNDLLEDRKILAQDVAQLKEKKESGENPPPKLRRRTFSLTEVRGQVSESEDSITKQIESLETEMEFRSAQIADLQQKLLDAESEDRPKQRWENIATILEAKCALKYLIGELVSSKIQVSKLESSLKQSKTSCADMQKMLFEERNHFAEIETELQAELVRMEQQHQEKVLYLLSQLQQSQMAEKQLEESVSEKEQQLLSTLKCQDEELEKMREVCEQNQQLLRENEIIKQKLTLLQVASRQKHLPKDTLLSPDSSFEYVPPKPKPSRVKEKFLEQSMDIEDLKYCSEHSVNEHEDGDGDDDEGDDEEWKPTKLVKVSRKNIQGCSCKGWCGNKQCGCRKQKSDCGVDCCCDPTKCRNRQQGKDSLGTVERTQDSEGSFKLEDPTEVTPGLSFFNPVCATPNSKILKEMCDVEQVLSKKTPPAPSPFDLPELKHVATEYQENKAPGKKKKRALASNTSFFSGCSPIEEEAH
Regarding B1, the binding result with YFP‐tagged B56α [1] is “binds”; with YFP‐B56α R222E, “no binding”; with YFP‐tagged B56α [2], “binds”; in the assay with YFP‐tagged B56α [3], “binds”.
LPRSSTLPTIHEEEELSLC [peptide containing LxxIxE motif]: in the assay with YFP‐tagged B56α [4], the binding result was “binds”.
Regarding LPRSSTLPTAHAEEELSLC [control mutant peptide LxxAxA], in the assay with YFP‐tagged B56α [4], the binding result was “no binding”.
